# ± gives the standard deviation. Some of the results follow. The uncertainty is large for many entries.
# System: EfPiwi piRISC loaded with L1MC piRNA (26 nt)
# Experiment: pre-steady-state target cleavage rate (min^-1); guide: L1MC piRNA 5'p-UAACUAAAUACUAUGCAAGCUGUAGG; MIWI and MILI are mouse PIWI proteins and EfPiwi is from a freshwater sponge; tags in brackets are library labels; higher = faster piRNA-guided slicing of the target
# Conditions: auxiliary factor: none (no Gtsf1)
# Method in brief: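 Cleave-'n-Seq: a transcribed, DNA-blocked target RNA library (0.1 nM) was mixed with 1 nM active affinity-purified piRISC carrying one synthetic guide, with or without 500 nM GTSF1 partner protein, in HEPES–potassium acetate buffer at 33 °C for 0–8 or 0–960 min. Uncleaved targets were sequenced and normalised to depth and to weakly complementary targets. Three trials were pooled, and k3 was capped at 0.0001 min^-1. The pre-steady-state cleavage rate came from a burst-and-steady-state fit.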
row,Sequence,pre-steady-state target cleavage rate
1,UCCUGCUACACGAUGCAUAGUAUUUAGUAA,0.00026 ± 0.021
2,UCCUGGUUACAGCUUGCAUAGUAUUUAGUUA,0.00968 ± 0.0057
3,UCCUGGAUGUCGUUGCAUAGUAUGUUAGUUA,0.000549 ± 0.021
4,UCCUGGUACAGCUUCGUUAGUAUUUAGAAA,0.000216 ± 0.033
5,UCCUGGAUGUGGAAGCAUAGUAUUUAGAAA,0.00199 ± 0.0076
6,UCCUGGUCACAGCUUGCAUAGUAUUUAGUUA,0.00386 ± 0.0078
7,UCCUGGAUGUCGAUGCAUAGUUUUUAGUUA,0.00052 ± 0.011
8,UCCUGGAUGUCGAAGGCAUAGUAUUUAGUUA,0.00013 ± 0.044
9,UCCUCCUACAGCUUGCAUAGAAAUUAGUUA,0.00124 ± 0.0069
10,UCCUGCUACAGCUUGCCUAGUAUUUAGUUA,0.000612 ± 0.011
11,UCCUGGAUGUGCUUGCAUAGUAUUUGUUA,0.000467 ± 0.019
12,UCCUCCUACAGCUUCCAUAGUAUUUAGAAA,0.000483 ± 0.012
13,UCCUGGAUGUCGAAGCAAAGAAUUUAGUUA,0.000411 ± 0.014
14,UCCUGGAUGUCGAACCUUAGUAUUUAGAUA,0.000202 ± 0.027
15,UCCUGGAUGUGGUUGCAUAGUAUUUAGAUA,0.000395 ± 0.038
16,UCCUGGAACAGCUUCCAUAGUAUUUACAAA,0.000457 ± 0.016
17,UCCUGGAUGUCGAUGCAUAGUGUUUAGUUA,0.00112 ± 0.0098
18,UCCUGGUACAGCUUACAUAGUAUUUAGUUA,0.000699 ± 0.014
19,UCCUGGAUGUGCUUGCAUAGUUAAUAGUUA,0.000509 ± 0.023
20,UCCUGGAUGAGCUUCCAUAGUAUUAAGUUA,0.000256 ± 0.027

row,Sequence,pre-steady-state target cleavage rate
1,UCCUGGAUGUCCUAGCAUAGUUUUUAGUUA,0.000279 ± 0.024
2,UCCUGCUACUCGUUGCAUAGUAUUUAGAAA,0.000771 ± 0.009
3,UCCUGGAUGUGCUUCGUUAGUAUUUAGUUA,0.000447 ± 0.018
4,UCCUGGAUGUCGAUGCAUAGUAUUAUGUUA,< 0.0001
5,UCCUGGAACAGCUUGCAUAGUAUUUGGUUA,0.000536 ± 0.015
6,UCCUGGAUGUCGAUGCAUAGUAUUUAGGUUA,0.00017 ± 0.044
7,UCCUGGAUCAGCUUCCAAAGUAUUUAGUUA,0.000179 ± 0.05
8,UCCUCCUACAGCUUGCAUAGAUUUUAGUAA,0.000448 ± 0.01
9,UCCUGCAACAGCUUGCAUUGUAUUUAGUUA,0.000645 ± 0.012
10,UCCUGGAUGUCGAACCAUAGUAUUUAGAAA [g4:g15:cont:t1A],0.00019 ± 0.025
11,UCCUGGAUGAGCUUGCAUAGAUAUUUAGUUA,0.000442 ± 0.019
12,UCCUGGAUGUCCUUGCAUAGUAGUUUAGUUA,0.000839 ± 0.011
13,UCCUGGAUGAGCUACCAUAGUAUUUAGUAA,0.000716 ± 0.0093
14,UCCUGGAUGUGGUUGCAUUGUAUUUAGUUA,0.000916 ± 0.013
15,UCCUGGAUGUCGAAGUAUAGUAUUUAGUUA,0.000605 ± 0.013
16,UCCUGGAUGUCGAUGCAUAGUAUUUAGUAUA,0.000621 ± 0.015
17,UCCUGGAUGUCGUUGGCAUAGUAUUUAGUUA,0.00015 ± 0.063
18,UCCUGGAUCACGUUGCAUAGUAUUUAGAAA,< 0.0001
19,UCCUGGAUGUCCUUCGUUAGUAUUUAGUUA,< 0.0001
20,UCCUGGAUGAGCUUGCAUAGGUAUUUAGUUA,0.000435 ± 0.022

# As entered above.
# Value of UCCUGGAUGUGGUUGCAUUGUAUUUAGUUA under pre-steady-state target cleavage rate: 0.000916 ± 0.013
# Value of UCCUGCUACAGCUUGCCUAGUAUUUAGUUA under pre-steady-state target cleavage rate: 0.000612 ± 0.011

# — the supplement of paper PMC10338343
